Data published in PubChem BioAssay AID330 (DTP/NCI, 2004).
The list is a part of this screen's results and no random one: it is rich in T/C values a quarter to a half above the control, in often repeated tests (any T/C) and in doses without a T/C. Other doses and runs of a compound stand elsewhere. T/C is the treated group as % of the vehicle group. Some doses have a count of surviving animals in place of a T/C: the source files T/C as zero there, which appears to mark a toxic dose or a test without result, not a measured value. Some doses without a T/C left all or most animals alive at the check, yet need not have been tolerated: survival well below the control is almost never listed, so the zero probably covers shortened survival too. Counts of survivors are from the toxicity check (mostly the fifth day) where no day follows; animals may have died later. Schedule codes are those of the source, read here as Q, the interval in days (D) or hours (H), X, the number of doses. Some entries hold several experiments; the results are listed from low to high. Some schedules carry Z or #; the key to these is not given. For survival time, the PubChem record calls one and a half times the control and up active, and a quarter to a half above the control has no call in these data; cut-offs in other NCI protocols can differ. Some T/C values carry the count of animals alive at the toxicity check (mostly the fifth day); without a count, all were alive then. Signs of the kind (2×) count equal records among those shown.

Tested on: P388 leukemia ip, CD2F1 mice, survival T/C
Assay: NCI In Vivo Anticancer Drug Screen. Data for tumor model P388 Leukemia (intraperitoneal) in CD2F1 (CDF1) mice
Conditions: T/C endpoint: median survival time, higher T/C = longer survival
[1] = dose: 100.0 mg/kg/injection, schedule: Q01DX009 (ip), vehicle: saline
[2] = dose: 200.0 mg/kg/injection, schedule: Q01DX009 (ip), vehicle: saline
[3] = dose: 800.0 mg/kg/injection, schedule: Q01DX005 (ip), vehicle: saline
[4] = dose: 240.0 mg/kg/injection, schedule: Q01DX005 (ip), vehicle: Klucel (hydroxypropylcellulose) (HPC)
[5] = dose: 400.0 mg/kg/injection, schedule: Q04DX003 (ip), vehicle: Klucel (hydroxypropylcellulose) (HPC)
[6] = dose: 200.0 mg/kg/injection, schedule: Q01DX009 (ip), vehicle: saline with Tween-80
[7] = dose: 200.0 mg/kg/injection, schedule: Q01DX005 (ip), vehicle: saline with Tween-80
[8] = dose: 120.0 mg/kg/injection, schedule: Q01DX005 (ip), vehicle: Klucel (hydroxypropylcellulose) (HPC)

Question: `CCc1cccc2c(NCCCCCCCCCCNc3c4ccccc4nc4c(CC)cccc34)c3ccccc3nc12` was tested. Which T/C (dose: 5.0 mg/kg/injection, schedule: Q## X009 (ip), vehicle: lactic acid) did it give?
Answer: 127 % of control

Question: What about the T/C (dose: 10.0 mg/kg/injection, schedule: Q## X009 (ip), vehicle: lactic acid) of the same compound?
Answer: 133 % of control

Question: What about the survivor count (dose: 20.0 mg/kg/injection, schedule: Q## X009 (ip), vehicle: lactic acid) of the same compound?
Answer: 3 of 6

Question: With `O=C(NC1=NN(Cc2ccccc2)C(=O)C1)c1ccc(S(=O)(=O)F)cc1` as the compound, how does the survivor count (dose: 240.0 mg/kg/injection, schedule: Q01DX005 (ip), vehicle: saline with Tween-80) read?
Answer: 3 of 6

Question: Which T/C (dose: 41.6 mg/kg/injection, schedule: Q03HX024 (ip), vehicle: saline) does the source give for `CCOC(=O)C(N)CSC(=O)NC` (stereo unspecified) here?
Answer: 134 % of control

Question: What about the T/C (dose: 50.0 mg/kg/injection, schedule: Q01DX009 (ip), vehicle: saline) of the same compound?
Answer: 130 % of control

Question: What about the T/C (dose: 55.5 mg/kg/injection, schedule: Q01DX009 (ip), vehicle: saline) of the same compound?
Answer: 127 % of control

Question: And the T/C (dose: 58.0 mg/kg/injection, schedule: Q01DX009 (ip), vehicle: saline)?
Answer: 136 % of control

Question: And the T/C (dose: 88.0 mg/kg/injection, schedule: Q01DX009 (ip), vehicle: saline)?
Answer: 140 % of control

Question: What about the T/C (dose: 100.0 mg/kg/injection, schedule: Q01DX005 (ip), vehicle: saline, evaluated on day 30) of the same compound?
Answer: 104, 120, 124, 126, 133 % of control

Question: And the T/C (dose: 100.0 mg/kg/injection, schedule: Q01DX005 (ip), vehicle: saline, evaluated on day 60)?
Answer: 120 % of control

Question: And the T/C [1]?
Answer: 140 % of control

Question: What about the T/C (dose: 111.1 mg/kg/injection, schedule: Q01DX009 (ip), vehicle: saline) of the same compound?
Answer: 138 % of control

Question: What about the T/C (dose: 125.0 mg/kg/injection, schedule: Q03HX008 (ip), vehicle: saline) of the same compound?
Answer: 135 % of control

Question: And the T/C (dose: 200.0 mg/kg/injection, schedule: Q01DX005 (ip), vehicle: saline, evaluated on day 30)?
Answer: 103, 136, 138 % of control (3×)

Question: What about the T/C (dose: 200.0 mg/kg/injection, schedule: Q01DX005 (ip), vehicle: saline, evaluated on day 60) of the same compound?
Answer: 131 % of control

Question: And the T/C [2]?
Answer: 147 % of control

Question: And the T/C (dose: 222.2 mg/kg/injection, schedule: Q01DX009 (oral), vehicle: saline)?
Answer: 131 % of control [7 of 10 alive]

Question: What about the survivor count (dose: 250.0 mg/kg/injection, schedule: Q03HX008 (ip), vehicle: saline) of the same compound?
Answer: 1 of 10

Question: And the survivor count (dose: 333.2 mg/kg/injection, schedule: Q03HX024 (ip), vehicle: saline)?
Answer: 0 of 10

Question: And the T/C (dose: 333.3 mg/kg/injection, schedule: Q04DX003 (ip), vehicle: saline)?
Answer: 128 % of control

Question: And the T/C (dose: 400.0 mg/kg/injection, schedule: Q01DX005 (ip), vehicle: saline, evaluated on day 30)?
Answer: 103, 150, 150 [4 of 5 alive], 165, 169 % of control

Question: And the T/C (dose: 400.0 mg/kg/injection, schedule: Q01DX005 (ip), vehicle: saline, evaluated on day 60)?
Answer: 145 % of control

Question: And the T/C (dose: 400.0 mg/kg/injection, schedule: Q01DX005 (iv), vehicle: saline)?
Answer: 127 % of control [9 of 10 alive]

Question: And the survivor count (dose: 500.0 mg/kg/injection, schedule: Q03HX008 (ip), vehicle: saline)?
Answer: 0 of 10

Question: And the T/C [3]?
Answer: 96 % of control

Question: And the survivor count [3]?
Answer: 0 of 5, 0 of 6, 2 of 10, 4 of 10

Question: What about the survivor count (dose: 800.0 mg/kg/injection, schedule: Q01DX005 (iv), vehicle: saline) of the same compound?
Answer: 0 of 10

Question: And the survivor count (dose: 888.8 mg/kg/injection, schedule: Q01DX009 (ip), vehicle: saline)?
Answer: 0 of 10

Question: What about the survivor count (dose: 1000.0 mg/kg/injection, schedule: Q01DX001 (iv), vehicle: saline) of the same compound?
Answer: 0 of 10

Question: What about the survivor count (dose: 1333.3 mg/kg/injection, schedule: Q04DX003 (ip), vehicle: saline) of the same compound?
Answer: 6 of 10

Question: And the survivor count (dose: 1600.0 mg/kg/injection, schedule: Q01DX005 (ip), vehicle: saline)?
Answer: 0 of 10

Question: What about the survivor count (dose: 2000.0 mg/kg/injection, schedule: Q01DX001 (ip), vehicle: saline) of the same compound?
Answer: 0 of 10

Question: What about the survivor count (dose: 2000.0 mg/kg/injection, schedule: Q01DX001 (iv), vehicle: saline) of the same compound?
Answer: 0 of 10

Question: What about the survivor count (dose: 4000.0 mg/kg/injection, schedule: Q01DX001 (ip), vehicle: saline) of the same compound?
Answer: 0 of 10

Question: What about the survivor count (dose: 4000.0 mg/kg/injection, schedule: Q01DX001 (iv), vehicle: saline) of the same compound?
Answer: 0 of 10

Question: How did the survivor count [4] turn out when `C/C(=C(/O)c1ccc(Cl)cc1)c1nc2ccc(Cl)cc2[nH]c1=O` was run?
Answer: 6 of 6

Question: `COc1cccc(C[n+]2ccccc2C#N)c1` was tested. Which survivor count [1] did it give?
Answer: 1 of 6

Question: What about the survivor count [2] of the same compound?
Answer: 0 of 6

Question: How did the T/C (dose: 0.8 mg/kg/injection, schedule: Q01DX009 (ip), vehicle: Klucel (hydroxypropylcellulose) (HPC)) turn out when `Nc1nc(N)c2nc(CN(CCO)c3ccc(C(=O)NC(CCC(=O)O)C(=O)O)cc3)cnc2n1` (stereo unspecified) was run?
Answer: 144 % of control

Question: And the survivor count (dose: 8.0 mg/kg/injection, schedule: Q01DX009 (ip), vehicle: Klucel (hydroxypropylcellulose) (HPC))?
Answer: 6 of 6

Question: What about the survivor count (dose: 16.0 mg/kg/injection, schedule: Q01DX009 (ip), vehicle: Klucel (hydroxypropylcellulose) (HPC)) of the same compound?
Answer: 6 of 6

Question: Which results are given for `O=NN(CCCl)C(=O)NC1C2CC3CC(C2)CC1C3` (stereo unspecified)?
Answer: T/C (dose: 5.0 mg/kg/injection, schedule: Q04DX003 (ip), vehicle: other): 140 % of control; survivor count (dose: 200.0 mg/kg/injection, schedule: Q04DX003 (ip), vehicle: other): 2 of 6; survivor count (dose: 400.0 mg/kg/injection, schedule: Q04DX003 (ip), vehicle: other): 2 of 6

Question: For `CC(=O)C1(c2ccccc2)CCN(c2c3ccccc3nc3ccccc23)CC1`, which T/C [5] is on record?
Answer: 128 % of control

Question: For `CCOc1ccccc1N=Cc1c2ccccc2cc2ccccc12`, which survivor count (dose: 100.0 mg/kg/injection, schedule: Q01DX009 (ip), vehicle: saline with Tween-80) is on record?
Answer: 5 of 6

Question: And the survivor count [6]?
Answer: 6 of 6

Question: `C[S+]1C2(C3CC4CC(C3)CC2C4)C12C1CC3CC(C1)CC2C3` (stereo unspecified) was tested. Which survivor count (dose: 200.0 mg/kg/injection, schedule: Q01DX005 (ip), vehicle: distilled water + alcohol) did it give?
Answer: 0 of 5

Question: For `O=C(O)C(O)C(O)C(=O)O.[Co+3].[NH-]CC[NH-].[NH-]CC[NH-].[NH-]CC[NH-]` (stereo unspecified), which survivor count [7] is on record?
Answer: 0 of 6

Question: `CC12C(=O)C=CCC1=CCC1C2CCC2(O)C(=O)OC3(C)C4CC5(C)C(COC16OC23C5C6=O)C(=O)O4` (stereo unspecified) was tested. Which T/C (dose: 225.0 mg/kg/injection, schedule: Q01DX009 (ip), vehicle: Klucel (hydroxypropylcellulose) (HPC)) did it give?
Answer: 132 % of control

Question: What about the T/C (dose: 300.0 mg/kg/injection, schedule: Q01DX009 (ip), vehicle: Klucel (hydroxypropylcellulose) (HPC)) of the same compound?
Answer: 137 % of control

Question: `O=C(O)C(O)C1CCCCC1` (stereo unspecified) was tested. Which survivor count [6] did it give?
Answer: 6 of 6

Question: `C[N+]1(Cc2ccccc2)C2CCC(O)C1CC2` (stereo unspecified) was tested. Which survivor count (dose: 60.0 mg/kg/injection, schedule: Q01DX005 (ip), vehicle: saline) did it give?
Answer: 2 of 6

Question: What about the survivor count (dose: 120.0 mg/kg/injection, schedule: Q01DX005 (ip), vehicle: saline) of the same compound?
Answer: 0 of 6

Question: And the survivor count (dose: 240.0 mg/kg/injection, schedule: Q01DX005 (ip), vehicle: saline)?
Answer: 0 of 6

Question: `CN(C)C1=NC(NC(C)(C)C)(N(C)C)OC(N(C)C)=N1` (stereo unspecified) was tested. Which survivor count (dose: 200.0 mg/kg/injection, schedule: Q01DX005 (ip), vehicle: saline) did it give?
Answer: 0 of 6

Question: How did the survivor count [7] turn out when `CCC1=CC2CN3CCc4c([nH]c5ccccc45)C(C(=O)OC)(C2)C13` (stereo unspecified) was run?
Answer: 3 of 6

Question: How did the survivor count [8] turn out when `Oc1cc2cccc[n+]2c2ccccc12` was run?
Answer: 0 of 6

Question: What about the survivor count [4] of the same compound?
Answer: 0 of 6

Question: For `COc1cccc2c1C(=O)c1nccc3cc4c(c-2c13)OCO4`, which survivor count [4] is on record?
Answer: 6 of 6

Question: `OCC(O)C(O)C(O)c1nn(-c2ccccc2)c2nc3ccccc3nc12` (stereo unspecified) was tested. Which survivor count (dose: 100.0 mg/kg/injection, schedule: Q01DX005 (ip), vehicle: saline with Tween-80) did it give?
Answer: 6 of 6

Question: `CNc1cc(C)c2ccc(N(C)C)cc2n1` was tested. Which survivor count [8] did it give?
Answer: 0 of 6

Question: What about the survivor count [4] of the same compound?
Answer: 0 of 6

Question: For `C/C(=N\N=C(/[Se])N1CCCCCC1)c1ccccn1`, which survivor count (dose: 100.0 mg/kg/injection, schedule: Q04DX003 (ip), vehicle: Klucel (hydroxypropylcellulose) (HPC)) is on record?
Answer: 2 of 6 and 6 of 6

Question: And the survivor count [5]?
Answer: 2 of 6
